{"source": "the supplement of paper PMC8728848", "binders": {"B1": {"name": "S100A12 (Homo sapiens), P80511 (protein)", "chain": "MTKLEEHLEGIVNIFHQYSVRKGHFDTLSKGELKQLLTKELANTIKNIKDKAVIDEIFQGLDANQDEQVDFQEFISLVAIALKAAHYHTHKE"}}, "assay_in_all_cases": "glycan array binding signal (z-score within array); higher = stronger binding", "details_in_all_cases": "glycan notation: IUPAC condensed, linker removed", "key": {"[1]": {"biological_target": "Neu5Ac(a2-3)[GalNAc(b1-4)]Gal(b1-4)GlcNAc", "summary_of_the_method": "(§1)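 Negative Z-scores can be read as non-binding. The Z-score is calculated within each array and then averaged across arrays of one protein sequence at different concentrations or buffers and across linkers. Arrays, 3228 in all, were curated from the Consortium for Functional Glycomics database and kept only where the protein sequence was available.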"}, "[2]": {"biological_target": "Neu5Ac(a2-3)[Neu5Ac(a2-6)]GalNAc", "summary_of_the_method": "as §1"}, "[3]": {"biological_target": "Neu5Ac(a2-6)Gal", "summary_of_the_method": "as §1"}, "[4]": {"biological_target": "Neu5Ac(a2-6)Gal(b1-4)Glc", "summary_of_the_method": "as §1"}, "[5]": {"biological_target": "Neu5Ac(a2-6)Gal(b1-4)GlcNAc", "summary_of_the_method": "as §1"}, "[6]": {"biological_target": "Neu5Ac(a2-6)Gal(b1-4)GlcNAc(b1-2)Man(a1-3)[Neu5Ac(a2-6)Gal(b1-4)GlcNAc(b1-2)Man(a1-6)]Man(b1-4)GlcNAc(b1-4)GlcNAc", "summary_of_the_method": "as §1"}, "[7]": {"biological_target": "Neu5Ac(a2-6)Gal(b1-4)GlcNAc(b1-3)Gal(b1-4)GlcNAc", "summary_of_the_method": "as §1"}, "[8]": {"biological_target": "Neu5Ac(a2-6)Gal(b1-4)GlcNAc(b1-3)Gal(b1-4)[Fuc(a1-3)]GlcNAc(b1-3)Gal(b1-4)[Fuc(a1-3)]GlcNAc", "summary_of_the_method": "as §1"}, "[9]": {"biological_target": "Neu5Ac(a2-6)Gal(b1-4)GlcNAc6S", "summary_of_the_method": "as §1"}, "[10]": {"biological_target": "Neu5Ac(a2-6)GalNAc", "summary_of_the_method": "as §1"}, "[11]": {"biological_target": "Neu5Ac(a2-6)GalNAc(b1-4)GlcNAc", "summary_of_the_method": "as §1"}, "[12]": {"biological_target": "Neu5Ac(a2-8)Neu5Ac", "summary_of_the_method": "as §1"}, "[13]": {"biological_target": "Neu5Ac(a2-8)Neu5Ac(a2-3)Gal(b1-4)Glc", "summary_of_the_method": "as §1"}, "[14]": {"biological_target": "Neu5Ac(a2-8)Neu5Ac(a2-3)[GalNAc(b1-4)]Gal(b1-4)Glc", "summary_of_the_method": "as §1"}, "[15]": {"biological_target": "Neu5Ac(a2-8)Neu5Ac(a2-8)Neu5Ac", "summary_of_the_method": "as §1"}, "[16]": {"biological_target": "Neu5Ac(a2-8)Neu5Ac(a2-8)Neu5Ac(a2-3)Gal(b1-4)Glc", "summary_of_the_method": "as §1"}, "[17]": {"biological_target": "Neu5Ac(a2-8)Neu5Ac(a2-8)Neu5Ac(a2-3)[GalNAc(b1-4)]Gal(b1-4)Glc", "summary_of_the_method": "as §1"}, "[18]": {"biological_target": "Neu5Ac(a2-8)Neu5Ac(a2-8)Neu5Ac(a2-8)Neu5Ac(a2-3)[GalNAc(b1-4)]Gal(b1-4)Glc", "summary_of_the_method": "as §1"}, "[19]": {"biological_target": "Neu5Ac(b1-6)GalNAc", "summary_of_the_method": "as §1"}, "[20]": {"biological_target": "Neu5Ac(b2-6)Gal(b1-4)GlcNAc", "summary_of_the_method": "as §1"}, "[21]": {"biological_target": "Neu5Ac9Ac(a2-6)Gal(b1-4)GlcNAc", "summary_of_the_method": "as §1"}, "[22]": {"biological_target": "Neu5Gc(a2-3)Gal(b1-3)GlcNAc", "summary_of_the_method": "as §1"}, "[23]": {"biological_target": "Neu5Gc(a2-3)Gal(b1-3)[Fuc(a1-4)]GlcNAc", "summary_of_the_method": "as §1"}, "[24]": {"biological_target": "Neu5Gc(a2-3)Gal(b1-4)Glc", "summary_of_the_method": "as §1"}, "[25]": {"biological_target": "Neu5Gc(a2-3)Gal(b1-4)GlcNAc", "summary_of_the_method": "as §1"}, "[26]": {"biological_target": "Neu5Gc(a2-3)Gal(b1-4)[Fuc(a1-3)]GlcNAc", "summary_of_the_method": "as §1"}, "[27]": {"biological_target": "Neu5Gc(a2-3)Gal(b1-4)[Fuc(a1-4)]GlcNAc", "summary_of_the_method": "as §1"}, "[28]": {"biological_target": "Neu5Gc(a2-6)Gal(b1-4)GlcNAc", "summary_of_the_method": "as §1"}, "[29]": {"biological_target": "Neu5Gc(a2-6)GalNAc", "summary_of_the_method": "as §1"}}, "note": "The list shows a part of the results."}
{"binder": "B1", "values": [{"measurement": "glycan array binding signal (z-score)", "setting": "[1]", "result": -0.368}, {"measurement": "glycan array binding signal (z-score)", "setting": "[2]", "result": 0.727}, {"measurement": "glycan array binding signal (z-score)", "setting": "[3]", "result": -0.013}, {"measurement": "glycan array binding signal (z-score)", "setting": "[4]", "result": 0.235}, {"measurement": "glycan array binding signal (z-score)", "setting": "[5]", "result": -0.54}, {"measurement": "glycan array binding signal (z-score)", "setting": "[6]", "result": -0.666}, {"measurement": "glycan array binding signal (z-score)", "setting": "[7]", "result": -0.755}, {"measurement": "glycan array binding signal (z-score)", "setting": "[8]", "result": -0.428}, {"measurement": "glycan array binding signal (z-score)", "setting": "[9]", "result": 0.573}, {"measurement": "glycan array binding signal (z-score)", "setting": "[10]", "result": -0.018}, {"measurement": "glycan array binding signal (z-score)", "setting": "[11]", "result": -0.591}, {"measurement": "glycan array binding signal (z-score)", "setting": "[12]", "result": 0.347}, {"measurement": "glycan array binding signal (z-score)", "setting": "[13]", "result": -0.017}, {"measurement": "glycan array binding signal (z-score)", "setting": "[14]", "result": -0.275}, {"measurement": "glycan array binding signal (z-score)", "setting": "[15]", "result": -0.32}, {"measurement": "glycan array binding signal (z-score)", "setting": "[16]", "result": -0.649}, {"measurement": "glycan array binding signal (z-score)", "setting": "[17]", "result": 0.182}, {"measurement": "glycan array binding signal (z-score)", "setting": "[18]", "result": -0.565}, {"measurement": "glycan array binding signal (z-score)", "setting": "[19]", "result": 0.657}, {"measurement": "glycan array binding signal (z-score)", "setting": "[20]", "result": 0.477}, {"measurement": "glycan array binding signal (z-score)", "setting": "[21]", "result": -0.213}, {"measurement": "glycan array binding signal (z-score)", "setting": "[22]", "result": 0.154}, {"measurement": "glycan array binding signal (z-score)", "setting": "[23]", "result": -0.442}, {"measurement": "glycan array binding signal (z-score)", "setting": "[24]", "result": -0.091}, {"measurement": "glycan array binding signal (z-score)", "setting": "[25]", "result": -0.597}, {"measurement": "glycan array binding signal (z-score)", "setting": "[26]", "result": -0.199}, {"measurement": "glycan array binding signal (z-score)", "setting": "[27]", "result": -0.012}, {"measurement": "glycan array binding signal (z-score)", "setting": "[28]", "result": -0.183}, {"measurement": "glycan array binding signal (z-score)", "setting": "[29]", "result": -0.009}]}
